The text below walks through data of paper PMC7037427.

No constants are given. Whether binding was seen depends on the method and setting.

The experiment has as its target recombinant intra-melanosomal domain of human tyrosinase (Tyrtr) (human) (UniProt P14679). Put plainly: SEC; Superdex 200 Increase 10/300, calibrated with Bio-Rad SEC standards; SEC buffer 50 mM Tris-HCl, pH 7.4, 1 mM EDTA, 150 mM NaCl, 50 µM TCEP; both purified. (SEC sorts molecules by how far they enter the pores of the column.)

B1: recombinant intra-melanosomal domain of human tyrosinase (Tyrtr) (domain or fragment, UniProt P14679 19-469)
chain: HFPRACVSSKNLMEKECCPPWSGDRSPCGQLSGRGSCQNILLSNAPLGPQFPFTGVDDRESWPSVFYNRTCQCSGNFMGFNCGNCKFGFWGPNCTERRLLVRRNIFDLSAPEKDKFFAYLTLAKHTISSDYVIPIGTYGQMKNGSTPMFNDINIYDLFVWMHYYVSMDALLGGSEIWRDIDFAHEAPAFLPWHRLFLLRWEQEIQKLTGDENFTIPYWDWRDAEKCDICTDEYMGGQHPTNPNLLSPASFFSSWQIVCSRLEEYNSHQSLCNGTPEGPLRRNPGNHDKSRTPRLPSSADVEFCLSLTQYESGSMDKAANFSFRNTLEGFASPLTGIADASQSSMHNALHIYMNGTMSQVQGSANDPIFLLHHAFVDSIFEQWLRRHRPLQEVYPEANAPIGHNRESYMVPFIPLYRNGDFFISSKDLGYDYSYLQDSDPDSFQDYIKSYLE
As for B1, the binding result was “no binding”.
